Results taken from the supplement of paper PMC3334620.
The full ranking holds about 33,000 sequences; the median of “E-score (-0.5 to 0.5)” is about -0.015, and the highest 2% start at about 0.3. Some of the results follow.

Target: T1, Abf1 (UniProt P14164)
T1 sequence: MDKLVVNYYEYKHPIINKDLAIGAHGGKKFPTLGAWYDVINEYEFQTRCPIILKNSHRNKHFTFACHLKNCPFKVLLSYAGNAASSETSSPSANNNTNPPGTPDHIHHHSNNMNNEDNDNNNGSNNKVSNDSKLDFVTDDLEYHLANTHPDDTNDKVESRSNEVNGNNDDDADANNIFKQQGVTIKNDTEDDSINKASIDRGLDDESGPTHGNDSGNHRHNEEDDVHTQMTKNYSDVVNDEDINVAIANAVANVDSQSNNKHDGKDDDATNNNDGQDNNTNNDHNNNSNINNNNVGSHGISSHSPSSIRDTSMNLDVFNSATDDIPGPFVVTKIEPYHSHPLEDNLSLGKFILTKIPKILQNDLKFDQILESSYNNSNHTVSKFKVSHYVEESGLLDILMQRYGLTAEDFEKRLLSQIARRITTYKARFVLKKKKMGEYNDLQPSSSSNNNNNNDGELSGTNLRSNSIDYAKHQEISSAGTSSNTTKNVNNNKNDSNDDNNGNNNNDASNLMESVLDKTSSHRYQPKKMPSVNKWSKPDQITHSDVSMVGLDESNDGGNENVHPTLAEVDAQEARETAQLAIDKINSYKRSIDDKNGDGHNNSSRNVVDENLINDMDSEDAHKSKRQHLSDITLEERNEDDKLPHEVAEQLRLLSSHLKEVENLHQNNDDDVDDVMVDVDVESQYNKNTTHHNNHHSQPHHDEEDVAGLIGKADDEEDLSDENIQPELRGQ
Test: PBM E-score (8-mer binding enrichment) (E-score (-0.5 to 0.5)); higher = stronger / more preferred TF binding
Details: protein concentration: 200 nM; construct: GST-full length
Procedure, shortened: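 PURExpress in vitro transcription/translation supplied GST-tagged yeast transcription factors, either full-length or DNA-binding domain. Applied at about 100-200 nM to universal all-10-mer Agilent arrays double-stranded by primer extension, the bound protein was detected with fluorescent anti-GST. E-scores, modified Wilcoxon-Mann-Whitney statistics, were given by the Universal PBM Analysis Suite to ungapped eight-base words pooled with their reverse complements after masliner normalisation.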

| Sequence | PBM E-score |
| --- | --- |
| TCAGTCGA | 0.149 |
| CCTGAGAA | -0.0164 |
| AAGAAACG | 0.128 |
| GTTATGCA | 0.0389 |
| ACCCGGAC | -0.134 |
| AAAAAACA | 0.11 |
| ATTATCTA | 0.185 |
| GACATGTC | 0.187 |
| GGATCCGA | -0.177 |
| GGCTACCC | -0.115 |
| ATCATACC | 0.205 |
| GAAGGCGA | -0.153 |
| CGGTTTTC | 0.126 |
| ATCGACAT | 0.113 |
| ATGTAGGA | 0.0486 |
| AGTATATC | 0.0567 |
| AAAAGAGC | 0.0141 |
| CGTAACTA | 0.118 |
| CGTTCGGC | 0.0205 |
| CCCGGAAC | -0.125 |
| AACTGTAA | 0.0911 |
| GAGGCCGC | -0.168 |
| CTACCATC | -0.252 |
| AGAGCTTA | 0.0841 |
| ATCTCATA | 0.071 |

| Sequence | PBM E-score |
| --- | --- |
| CGCATTAC | 0.0726 |
| GCTGCACC | -0.267 |
| CGGACCCG | -0.0838 |
| ACCTCATC | 0.0693 |
| CGGGCTTA | -0.0475 |
| GAACTATC | 0.0972 |
| CAGAACCG | -0.0771 |
| CTAATCCA | -0.104 |
| CAACAAAC | -0.112 |
| GTGCACAC | 0.0386 |
| TAGCCCAA | -0.0858 |
| ACACTCTG | -0.152 |
| ATAGCGCG | -0.0064 |
| ACTCTGCG | 0.0935 |
| CCGCCACC | -0.31 |
| GCTTCTCC | -0.201 |
| CGTCAATA | 0.185 |
| ATGCGGAC | -0.167 |
| ACAGTGAC | 0.259 |
| CATCGGCG | -0.18 |
| TTCGCCAA | -0.0672 |
| CTGGTACC | -0.0127 |
| ATAGTACC | 0.00303 |
| GCATAAGA | 0.0214 |
| CTCTGGAC | 0.0454 |

Given tab-delimited: part of the list above
Sequence	PBM E-score
ATCATACC	0.205
AGTATATC	0.0567
TAGCCCAA	-0.0858
ACTCTGCG	0.0935
CGTCAATA	0.185
ATAGTACC	0.00303

Additional entries:

| Sequence | PBM E-score |
| --- | --- |
| CTCGGCTA | -0.134 |
| AGACTCGA | 0.0276 |
| ATTTGGCG | 0.162 |
| GGTACCAC | -0.2 |
| AGCACTGC | -0.191 |
| AAGTCAGC | 0.0842 |
| ACTGTCCT | 0.0698 |
| AATTTCGG | -0.0083 |
| AAATTTTG | -0.0483 |
| AATACCAC | 0.0643 |
| ATTGCCAG | 0.0477 |
| TCGCTAGA | 0.046 |
| TGGCTTAA | 0.115 |
| AAGGTTCA | -0.0622 |
| CAGAACAC | -0.409 |
| TAACTCTA | -0.0858 |
| GCGCTAGA | 0.00806 |
| TTGGCCAA | -0.429 |
| AGGCCGAC | -0.298 |
| AGCACAGC | -0.116 |
| AAGAGTAT | -0.101 |
| CACAAGAC | -0.168 |
| AACAGGCT | -0.0175 |
| CATATCCA | 0.0365 |
| CTGTCCGA | -0.0488 |

| Sequence | PBM E-score |
| --- | --- |
| CAAATCCC | -0.184 |
| CCTGTGGC | 0.0325 |
| AAGCCTGG | -0.315 |
| ATGGATCA | 0.122 |
| AGGCTACG | -0.0128 |
| AGTTTTAA | 0.12 |
| GCTCCCTA | -0.33 |
| CCTAAACG | -0.0063 |
| GCTCGGAA | -0.0698 |
| GTAAAAAC | 0.0597 |
| GCGCGAAA | 0.0315 |
| ACCGAACG | 0.133 |
| AGCTGTGG | -0.134 |
| CCCTAGAC | 0.0508 |
| AGTCCCTG | -0.186 |
| AATGTAGG | -0.184 |
| CTGTTTGA | 0.0686 |
| CGCTGTTC | -0.0263 |
| GACTTCGC | 0.196 |
| GTTCGTGA | 0.254 |
| AAGAGGCC | -0.173 |
| AGCGCCCT | 0.0338 |
| GTGACCGA | 0.0963 |
| GACCGACC | -0.0208 |
| GGTAGACC | -0.195 |

A second format for part of the listing above.
Sequence	PBM E-score
AAGCCTGG	-0.315
ATGGATCA	0.122
AATGTAGG	-0.184
GACTTCGC	0.196

Next part:

| Sequence | PBM E-score |
| --- | --- |
| AGTACGTA | 0.238 |
| CAAAGTGG | -0.238 |
| ACGAAGCG | 0.0722 |
| ATCGACGA | 0.291 |
| CCGACTAC | -0.119 |
| CACCACTG | -0.144 |
| CTTGCGCC | -0.297 |
| CAGGTCCA | 0.025 |
| ATCCCCAC | -0.0733 |
| CCAGGGAC | -0.253 |
| ATGTCTTC | -0.00112 |
| ACCCAAAC | 0.0793 |
| CTAGTGAA | -0.202 |
| GCCATTCA | -0.0562 |
| AGCTGCGA | -0.0485 |
| GCTGATGA | 0.199 |
| ATTCTTTG | 0.0255 |
| ATTAAGGA | 0.0257 |
| CAGCGGAG | -0.115 |
| ACCTTCGC | -0.0719 |
| CACGAGTC | 0.0257 |
| CTCTAATC | 0.0149 |
| GACCGGAC | 0.00876 |
| ATATTGAA | 0.168 |
| AATCATAG | -0.0288 |

Look-ups from the list.
Under PBM E-score, AGCTGCGA has -0.0485
Under PBM E-score, GACCGGAC has 0.00876

The list continues.

| Sequence | PBM E-score |
| --- | --- |
| CAAACGAG | 0.165 |
| CAACAGCA | -0.173 |
| TACCTGAA | 0.0164 |
| ACAGACCC | -0.224 |
| AGTGGATG | 0.013 |
| AACAAGAA | 0.237 |
| AACATTCG | 0.0942 |
| AATTACCG | 0.0216 |
| GTTCAGAA | 0.165 |
| AAAGCCCG | -0.178 |
| CGGTGCCA | 0.0488 |
| CTGCGCGC | 0.0237 |
| GTATTACA | -0.0656 |
| AACTATCA | 0.204 |
| TCCGCGCA | -0.0496 |
| AGATGGCA | 0.036 |
| ACCTGAGC | -0.0373 |
| ACTCAGAT | 0.0372 |
| ACGATTAA | 0.274 |
| ACGGCCTA | 0.234 |
| AAAGGTGG | -0.116 |
| GGCTGACA | -0.0556 |
| CATTCGGC | -0.0277 |
| TCTATTCA | -0.0146 |
| AGCGGTCA | -0.163 |

| Sequence | PBM E-score |
| --- | --- |
| GCGAATCC | -0.115 |
| ACCCGACT | -0.115 |
| AAGCCGAG | -0.106 |
| CGTACATA | 0.364 |
| ACGAGAGG | -5e-05 |
| AATACAGA | -0.033 |
| TACTTCTA | 0.148 |
| CTCCCTTC | -0.253 |
| CTCTTGAC | 0.114 |
| GACGCGAC | -0.0896 |
| GTTTTGTA | 0.194 |
| AGCAAGAT | -0.0651 |
| AACGGGTC | -0.0623 |
| CTCAGTCA | -0.14 |
| AGCTGGTA | -0.0722 |
| GGAAATTA | 0.0941 |
| GACACGCC | 0.0692 |
| GTGGAGGA | 0.0354 |
| CTGACTGC | -0.328 |
| ACTAAGGA | -0.0558 |
| TACTCAGA | -0.00166 |
| ATTAGAGC | 0.139 |
